Source: article PMC11272775, “Epigenetic memory is governed by an effector recruitment specificity toggle in Heterochromatin Protein 1” (Nature Communications, 2024)
Numbering of substitutions follows the chain as printed. Numbers in names are those of the source. No constants are given. Whether binding was seen depends on the method and setting. For part of these data: Binding seen in cells or lysates may run through a third protein. Some binding calls cover weakened binding; strength is not graded here. For part of these data: Where a sequence is shown, tags or fusion partners need not be part of it. Blank lines part the entries; values can stand above or below the binder they belong to.

Key:
Epe1-V5 (S. pombe) = biological target: T1, Epe1-V5 (S. pombe) (UniProt O94603); test: co-IP; V5 antibody cross-linked to Protein G magnetic beads, S. pombe cell lysates (30 mM HEPES pH 7.5, 100 mM NaCl, 0.25% Triton X-100, 5 mM MgCl2, 1 mM DTT), 3 h at 4 °C; Epe1 detected with a V5 antibody, Swi6 with a primary antibody
T1 sequence: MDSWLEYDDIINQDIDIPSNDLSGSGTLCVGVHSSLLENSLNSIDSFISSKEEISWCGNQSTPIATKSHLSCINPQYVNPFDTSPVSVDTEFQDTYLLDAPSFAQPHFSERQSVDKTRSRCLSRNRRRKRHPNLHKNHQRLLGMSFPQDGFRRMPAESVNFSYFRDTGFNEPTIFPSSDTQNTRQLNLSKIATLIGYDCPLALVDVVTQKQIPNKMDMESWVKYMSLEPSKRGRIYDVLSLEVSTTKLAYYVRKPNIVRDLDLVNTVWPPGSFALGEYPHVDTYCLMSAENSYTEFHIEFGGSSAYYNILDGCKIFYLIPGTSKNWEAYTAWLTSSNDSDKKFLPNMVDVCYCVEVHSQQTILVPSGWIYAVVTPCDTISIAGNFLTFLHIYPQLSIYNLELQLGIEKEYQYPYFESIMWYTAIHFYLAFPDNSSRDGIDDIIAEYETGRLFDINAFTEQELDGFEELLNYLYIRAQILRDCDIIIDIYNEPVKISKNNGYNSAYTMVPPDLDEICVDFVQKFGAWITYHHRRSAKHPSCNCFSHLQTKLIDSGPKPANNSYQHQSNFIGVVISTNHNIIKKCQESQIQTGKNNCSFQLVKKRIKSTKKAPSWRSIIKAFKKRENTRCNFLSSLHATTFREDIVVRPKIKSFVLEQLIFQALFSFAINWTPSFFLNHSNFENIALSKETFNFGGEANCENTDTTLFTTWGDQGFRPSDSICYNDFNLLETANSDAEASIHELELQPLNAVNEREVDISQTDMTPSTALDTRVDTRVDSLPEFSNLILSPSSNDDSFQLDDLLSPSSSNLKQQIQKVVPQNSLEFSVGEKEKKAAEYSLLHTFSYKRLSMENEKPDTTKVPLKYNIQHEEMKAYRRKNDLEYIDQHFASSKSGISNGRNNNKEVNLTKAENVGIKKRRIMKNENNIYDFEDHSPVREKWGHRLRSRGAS

[1] = biological target: Swi6-L315E (recombinant, full-length) (S. pombe) (UniProt P40381); test: mass photometry; full-length recombinant Swi6 at 2.5-20 nM in 20 mM HEPES pH 7.5, 100 mM KCl; apparent dimerization constants (Kdim) from the relative abundance of monomer and dimer; dimer to monomers; both purified
[2] = biological target: T2, 3X FLAG-Swi6 L315E (recombinant) (S. pombe), P40381; test: pull-down; recombinant 3X FLAG-Swi6 immobilised on FLAG M2 beads, three concentrations of recombinant MBP-Epe1; 20 mM HEPES pH 7.5, 150 mM NaCl, 5 mM MgCl2, 10% glycerol, 0.25% Triton X-100, 1 mM DTT; 2 h at 4 °C; blots with anti-MBP and M2 Flag antibodies; both purified; settings: remark: other sources report otherwise
T2 chain: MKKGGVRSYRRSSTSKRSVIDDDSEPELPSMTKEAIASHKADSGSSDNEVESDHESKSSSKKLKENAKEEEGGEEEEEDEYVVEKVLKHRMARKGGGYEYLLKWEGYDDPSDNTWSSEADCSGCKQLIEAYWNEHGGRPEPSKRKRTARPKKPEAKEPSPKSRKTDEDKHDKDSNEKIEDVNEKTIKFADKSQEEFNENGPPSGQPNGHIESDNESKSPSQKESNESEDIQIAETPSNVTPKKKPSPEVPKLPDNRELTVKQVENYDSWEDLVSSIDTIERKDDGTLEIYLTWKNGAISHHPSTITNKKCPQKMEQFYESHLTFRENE

binding (Epe1-V5 (S. pombe)): binds
B1: Swi6-WT (protein, UniProt P40381 1-328)
chain: T2 chain with E315L

binding [1]: no binding (tested: 2.5–20 nM)
B2: Swi6-L315E (recombinant, full-length) (protein, UniProt P40381 1-328)
chain: T2 chain

binding [2]: no binding
B3: MBP-Epe1, O94603 1-948 (protein)
chain: T1 sequence
